Results: patent publication US4596789A (ICI Americas Inc., priority 1983, dated 1986)

Test: general procedure: solution-phase peptide synthesis; isobutyl chloroformate / N-methylmorpholine (mixed anhydride); HOBT / 1-(3-dimet)
Details: coupling step

Q: Which step yield does the source give for “N-alpha-(3-Carbomethoxypropionyl)-N-epsilon-benzyloxycarbonyl-L-lysyl-L-va lyl-L-prolyl-L-valinal diethylacetal” here?
A: The step yield was 58%.
